Data taken from PMC3718817 (2013).

Protein sequences, listed by entry. Tags and fused reporters are not part of them. Lines headed by an entry give the natural chain unless they say otherwise; changes in a name come on top.
UniProt P32598: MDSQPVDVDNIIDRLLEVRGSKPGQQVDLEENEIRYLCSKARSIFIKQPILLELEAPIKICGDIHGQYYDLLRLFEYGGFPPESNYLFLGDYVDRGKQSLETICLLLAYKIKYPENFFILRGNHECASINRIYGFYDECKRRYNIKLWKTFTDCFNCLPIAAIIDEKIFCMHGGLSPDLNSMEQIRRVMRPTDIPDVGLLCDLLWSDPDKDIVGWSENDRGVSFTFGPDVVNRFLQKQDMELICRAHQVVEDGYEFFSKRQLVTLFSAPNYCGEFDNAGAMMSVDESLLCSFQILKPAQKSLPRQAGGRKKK
UniProt P36047: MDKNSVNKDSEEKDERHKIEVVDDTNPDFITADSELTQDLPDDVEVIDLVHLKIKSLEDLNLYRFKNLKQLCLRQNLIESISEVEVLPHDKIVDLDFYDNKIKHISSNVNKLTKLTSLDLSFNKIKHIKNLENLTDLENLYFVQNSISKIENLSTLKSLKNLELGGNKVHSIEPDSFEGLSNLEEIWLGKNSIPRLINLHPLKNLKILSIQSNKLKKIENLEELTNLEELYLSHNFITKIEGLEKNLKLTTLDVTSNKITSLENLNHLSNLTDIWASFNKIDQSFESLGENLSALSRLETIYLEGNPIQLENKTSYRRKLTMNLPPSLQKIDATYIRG

Molecular target: Gal4(1-147)-Glc7 (S. cerevisiae) (UniProt P32598)
Assay: two-hybrid; PJ69-4A with pAS1-GLC7 (Gal4 DNA-binding domain fusion) and Gal4AD-Sds22 fusions; β-galactosidase activity of three independent transformants

Row | binding | Substance
1 | binds | Gal4AD-Sds22 Δ243–323 (from UniProt P36047)
2 | binds | Gal4AD-Sds22 Δ81–124 (from UniProt P36047)

Results are given in words; binding and its absence hold for the method and conditions named. Binding calls can cover weak binding; strength is not graded here.
